This passage reports binding results from paper doi:10.1101/2023.06.14.544986.

These are yes or no findings as the source states them, for the method shown. Binding seen in cells or lysates may run through a third protein. A result given as binding can be weak or reduced; the word gives no strength. Where a sequence is shown, tags or fusion partners need not be part of it.

Test [1] has as its target T1, Arm^34–87-GFP (Drosophila) (UniProt P18824).
T1 sequence: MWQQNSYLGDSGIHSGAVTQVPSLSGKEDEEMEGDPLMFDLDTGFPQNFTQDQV
In words: co-IP.

Test [2] deals with T2, GST-Arm^34–87 (Drosophila) (UniProt P18824).
T2 sequence: T1 sequence
In words: pull-down.

Take IFT140-myc (Drosophila): in test [1], the binding entry is “binds”.
Consider MBP-IFT140 (Drosophila), for which the binding entry in test [2] was “binds”.
On the same count and under the same terms, the result for MBP-Klp64D (Drosophila) reads “no binding”.
As for IFT144-myc (Drosophila), the binding entry in test [1] is reported as “no binding”.
As to MBP-Kap3 (Drosophila), the binding entry in test [2] is listed as “no binding”.
